According to patent publication US8207122B2, “Anti-cancer bioactive peptides isolated from crude venom of Xinjiang Lycosa singoriensis” (Xiamen Bioway Biotech Co., Limited, priority 2007, dated 2012):
At least one peptide structure holds a part that was inferred or is arguable (an end, a ring closure or a residue). Where a SMILES comes first, the peptide text is derived from it.

How the values were obtained:
[1] = test system: HNE1; experiment: Cytotoxicity by MTT assay on HNE1; assay type: cell-based; conditions: 40 μmol of the peptide
[2] = test system: JB6; experiment: Cytotoxicity by MTT assay on JB6; assay type: cell-based, mouse; conditions: 40 μmol of the peptide
[3] = test system: Hela; experiment: Cytotoxicity by MTT assay on Hela; assay type: cell-based; conditions: 40 μmol of the peptide
[4] = test system: CNE1; experiment: Cytotoxicity by MTT assay on CNE1; assay type: cell-based; conditions: 40 μmol of the peptide
[5] = test system: Hela cells; experiment: Apoptosis by Annexin V-fluorescein isothiocyanate/propidium iodide double staining; assay type: cell-based; conditions: 20 μmol of the peptide
[6] = test system: solid tumors; experiment: Tumor-bearing nude mice model; assay type: in vivo
[7] = test system: HT1080; experiment: Cytotoxicity by MTT assay on HT1080; assay type: cell-based; conditions: 40 μmol of the peptide
[8] = test system: Hela cells; experiment: Comparison of inhibitory activity of peptides on Hela cells; assay type: cell-based
Procedure: The above-mentioned experiments have verified the peptide has strong inhibition on the growth of cancer cells and solid tumors. In order to study the inhibition degree of difference sequences (SEQ. Nos. 1-5) of the peptide on tumor cells, comparative experiments of measuring the activity of Hela cells were conducted (as shown in FIG. 7).
Nos. 1-4, at a concentration of 40 μmol/L, the inhibition rate on Hela cells was about 90%, at 20 μmol/L, about 50%, at 5 μmol/L, only 2%. Thus, the inhibition degree of SEQ. Nos. 1-4 on Hela cells was basically equal. However, for SEQ. No. 5, at a concentration of 40 μmol/L, 20 μmol/L, and 5 μmol/L, the inhibition rate on Hela cells was more than 80%. Compared with that of SEQ. Nos. 1-4, the inhibition degree of SEQ. No. 5 had been increased by about 10 times. No. 1 and SEQ. No. 5 could dissolve 19% and 37% red cells respectively, which meant the hemolytic activity of SEQ. No. 5 was […] than that of SEQ. No. 1.

Structure (SMILES)	killing capacity [1]	killing rate [2] [%]	killing rate [3] [%]	killing capacity [4]	apoptosis of Hela cells [5] [%]	tumor volume of the control group relative to the sample group ([6]; 10th day after administration, P<0.05) [times]	tumor volume change of the sample group ([6]; during administration of the peptide)	tumor weight of the control group relative to the sample group ([6]; solid tumor collected after nude mice were killed, P<0.03) [times]	killing rate [7] [%]	increase of inhibition degree (activity) compared with SEQ. Nos. 1-4 / SEQ ID NO. 1 [8]
CC[C@H](C)[C@H](NC(=O)[C@H](Cc1ccccc1)NC(=O)[C@H](CCCCN)NC(=O)[C@H](C)NC(=O)[C@@H](NC(=O)[C@H](CO)NC(=O)[C@H](CCCCN)NC(=O)[C@H](CCSC)NC(=O)[C@H](C)NC(=O)[C@H](CCCCN)NC(=O)[C@H](Cc1ccccc1)NC(=O)[C@H](Cc1c[nH]c2ccccc12)NC(=O)CNC(=O)[C@H](CCCCN)NC(=O)[C@@H](N)CCCNC(=N)N)[C@@H](C)CC)C(=O)N[C@@H](C)C(=O)N[C@@H](CCCCN)C(=O)N[C@@H](CCC(=O)O)C(=O)N[C@@H](CCCCN)C(=O)N[C@@H](CC(C)C)C(=O)N[C@@H](CCCCN)C(=O)N[C@@H](CCC(=O)O)C(=O)N[C@@H](Cc1c[nH]cn1)C(=O)N[C@@H](CC(C)C)C(N)=O [SEQ. No. 1] (H-RKGWFKAMKSIAKFIAKEKLKEHL-NH2)	obvious killing capacity	36	98	obvious killing capacity	25.6	5	almost had no change	5	98	–
CC[C@H](C)[C@H](NC(=O)[C@H](Cc1ccccc1)NC(=O)[C@H](CCCCN)NC(=O)[C@H](C)NC(=O)[C@@H](NC(=O)[C@H](CO)NC(=O)[C@H](CCCCN)NC(=O)[C@H](CCSC)NC(=O)[C@H](C)NC(=O)[C@@H](N)CCCCN)[C@@H](C)CC)C(=O)N[C@@H](C)C(=O)N[C@@H](CCCCN)C(N)=O [SEQ. No. 5, Lys Ala Met Lys Ser Ile Ala Lys Phe Ile Ala Lys-NH2] (H-KAMKSIAKFIAK-NH2)	–	–	–	–	–	–	–	–	–	about 10 times
